Among the data in PubChem BioAssay AID445 (National Center for Advancing Translational Sciences (NCATS), 2006) are AC50 values, retold here.

The test in a line: IkB Signaling. Conditions: ABC-DLBCL IkBa-CBG/CBR dual luciferase ratio (green luciferase fused to IkBa over red control in OCI-Ly3 lymphoma cells), 4 h. The source says:
NIH Molecular Libraries Screening Centers Network [MLSCN]
NIH Chemical Genomics Center [NCGC]
Nuclear factor kappa-B (NF-kappa-B) plays an important role in normal B cell development and survival. Diffuse large B cell lymphoma (DLBCL) is the most commonly observed type of non-Hodgkin's lymphoma. Gene expression analysis has identified an activated B cell-like subtype of DLBCL (ABC-DLBCL) which expresses known NF-kappa-B target genes. […] However, targets upstream of IKK have been largely unexplored and so nodes upstream of IKK in the NF-kappa-B pathway remain untested due to the lack of chemical probes.
A cell-sensor assay for I-kappa-B-alpha stabilization was developed with NIH investigator Dr. R. Eric Davis in Dr. Louis M. Staudt's laboratory. The assay uses green (CBG68) and red (CBR) emitting beetle luciferases [Chroma-Glo(TM) developed by Promega Corp.] where the green luciferase is fused to I-kappa-B-alpha and the red luciferase is present in its native state. Both luciferase genes are stably present in the OCI-Ly3 human ABC DLBCL cell line, but their expression is under the control of tetracycline-inducible promoters. Following the addition of doxycycline to induce expression of the luciferases, the green luminescence in control cultures rises only slowly because the CBG fusion partner I-kappa-B-alpha is targeted by IKK activity for rapid degradation. In contrast, green luminescence rises rapidly in the presence of proteasome inhibitors or IKK inhibitors. The rise in red luminescence of CBR is not affected by proteasome or IKK inhibitors, and serves as normalization for cell number and nonspecific effects. Compounds were screened as a concentration-titration series that ranged from 57 uM to 0.7 nM.
NCGC Assay Protocol Summary:
Cells were seeded in 1536-well plates at 5000 cells/3ul in IMDM medium containing 0.5% FBS, w/o phenol red, L-glutamine, 25 mM HEPES, 3 mg/ml sodium bicarbonate. After centrifugation for 1 min. at 1000 rpm, 23 nl of compounds or DMSO were delivered to each well using a pin tool. Then 1ul 80ng/ml doxycycline was dispensed into white solid 1536-well plates and the plates were incubated at 37C/5% C02 in a cell incubator for 4 hrs. Then 4 ul Chroma-Glo luminescent substrate mix (Promega) was added to each well. The plate was incubated at R.T. for 10-15 min. The plates were measured on a ViewLux plate reader for green luminescence (540/20 nm filter) and red luminescence (618/8 nm filter). The green and red luminescent signals were corrected for red and green luminescence filter overlap using previously determined filter calibration constants (determined using the procedure outlined in the Promega Technical Manual). The %Activity was determined from the ratio of corrected green/red luminescent values. Green luminescent and ratio %Activity was determined by normalizing to the difference in signal between basal cells (0% Activity) and cells incubated with 10 uM of the proteasome inhibitor MG-132 (100% Activity). Red luminescent %Activity was normalized to the difference between red luminesence in basal cells (0%Activity) and zero luminescence (-100% Activity).
Concentration-response curves were fitted to the signals arising from the green luminescence (I-kappa-B-alpha-luciferase fusion; IkB-luc) and the red luminescence (unfused luciferase; luc) as well as the calculated ratio. The concentration-effect curves were then classified based on curve quality (r2), response magnitude and degree of measured activity. Compounds were then categorized based on their concentration-response curves for all three datasets (Ikb-luc, luc and ratio).
Keywords: IKK, I-kappa-B, IkB, IkBa, cytotoxicity, luminescence, MLSMR, MLSCN, NIH Roadmap, qHTS, NCGC

Setting [1] is: measured here: control luc red channel unless noted.

As a reminder, the AC50 is the midpoint of the concentration-response curve, whichever way the signal moves.

The other results are listed elsewhere or left out. These are further read-outs of the screen, such as a control signal, another cell line or another target. No call is given for them. The list favours compounds with an active or inconclusive main result. Potencies come from curve fits of mixed quality, noted in brackets.

Consider `COc1cccc(C(=O)NCC(c2cccnc2)N2CCN(c3ccccc3OC)CC2)c1` (stereo not given), for which, under setting [1], the concentration at half-maximal activity (AC50) is 25.1 µM [falling, partial curve].

As to `Cc1onc(-c2c(F)cccc2Cl)c1C(=O)Nc1ccc(OC(C)C)cc1`, the AC50 under setting [1] was 15.8 µM [falling, partial curve].

For the compound `O=C1CCCc2cc(S(=O)(=O)NCC3CCC(C(=O)NCc4ccccc4Cl)CC3)ccc2N1` (stereo not given), the AC50 under setting [1] is 25.1 µM [falling, single point].

As for `COc1ccc(CCNC(=O)c2cc3c(s2)-c2ccccc2OC3)cc1OC`, under setting [1], the AC50 was 15.8 µM [falling, partial curve].

Turning to `Cc1ccc(-n2nc3c(N4CCC(C(=O)NC(C)c5ccccc5)CC4)nnc(C)c3c2C)cc1` (stereo not given), under setting [1], the AC50 is 2 µM [falling, full curve, poor fit].

As to `O=C(Cn1ccc2ccccc2c1=O)NCCC(=O)Nc1ccc(F)cc1F`, the AC50 under setting [1] is 12.6 µM [falling, partial curve, poor fit].

As for `CCOC(=O)c1cccc(NC(=O)c2cc(S(=O)(=O)N3CCCC(C)C3)cn2C)c1` (stereo not given), the AC50 under setting [1] was 5.01 µM [falling, partial curve].

Consider `CC1=C(C(N)=O)C(c2ccc(C)cc2)n2nc(SCc3ccccc3F)nc2N1` (stereo not given), for which the concentration at half-maximal activity (AC50) under setting [1] is 0.0501 µM [falling, full curve, poor fit].

In the case of `Cc1ccc2cc(C#N)c(N3CCCN(C(=O)C4CCCO4)CC3)nc2c1C` (stereo not given), the AC50 under setting [1] was 25.1 µM [falling, single point].

As to `CCOC(=O)C1CCCN(C(=O)Cn2ncc3c(C)n(Cc4ccccc4F)c(C)c3c2=O)C1` (stereo not given), under setting [1], the concentration at half-maximal activity (AC50) is 15.8 µM [falling, partial curve].

Consider `COc1cccc(CNC(=O)CSc2nnc(C)c3c(C)n(-c4ccccc4)nc23)c1OC`, for which the AC50 under setting [1] was 20 µM [falling, partial curve].

`Cc1cc(C)cc(NC2=C(c3ccccc3)C(=O)c3ccccc32)c1`: the AC50 under setting [1] is 7.94 µM [falling, full curve].

Consider `O=C(CCCNS(=O)(=O)c1cccs1)N1CCN(c2cccc(Cl)c2)CC1`, for which the AC50 under setting [1] is 12.6 µM [falling, partial curve].

`CC[C@@H](C)[C@@H](C(=O)Nc1ccc(C)cc1)N1Cc2ccccc2C1=O`: the AC50 under setting [1] is 39.8 µM [falling, single point].

Consider `CCCn1c(=O)c2c(nc3n2CCN3c2ccc(C)cc2)n(C)c1=O`, for which, under setting [1], the half-maximal activity concentration (AC50) is 20 µM [falling, single point].

Consider `Cc1ccc(CN(C(=O)COc2ccc(Cl)cc2C)C2CCS(=O)(=O)C2)o1` (stereo not given), for which, under setting [1], the AC50 is 10 µM [falling, partial curve].

Consider `CCOC(=O)c1c(NC(=O)c2cc(CC(C)C)on2)sc(C(C)=O)c1C`, for which the AC50 under setting [1] is 0.316 µM [rising, full curve].

Take `Cc1ccc(NC(=O)c2cc3c(=O)n(Cc4ccco4)ccc3nc2C)cc1C`: the half-maximal activity concentration (AC50) under setting [1] was 20 µM [falling, partial curve].

In the case of `Cn1c(=O)oc2cc(S(=O)(=O)NCCC(=O)NCCc3ccc(Cl)cc3)ccc21`, the AC50 under setting [1] is 7.94 µM [falling, partial curve].

With `CSc1ccc(C2c3c(oc4cc(C)cc(C)c4c3=O)C(=O)N2CCO)cc1` (stereo not given), the AC50 under setting [1] was 3.16 µM [falling, single point].

For `Cc1nc2sc(C(=O)N(C)c3ccccc3)c(NC(=O)c3ccccc3Cl)c2c(C)c1C`, the AC50 under setting [1] is 12.6 µM [falling, partial curve].

Consider `COc1ccc(C2C(C(=O)Nc3ccccc3OC)=C(C)Nc3c(C(=O)Nc4ccccc4)cnn32)c(OC)c1` (stereo not given), for which the AC50 under setting [1] is 12.6 µM [falling, single point].

Turning to `Cc1ccc(NC(=O)c2c(C)oc3ccc(O)c(CN4CCOCC4)c23)c(C)c1`, under setting [1], the AC50 is 39.8 µM [falling, single point].

For the compound `CCN(CC)Cc1c(NC(=O)c2ccc(OC)cc2)sc2c1CCCC2`, under setting [1], the AC50 was 25.1 µM [falling, partial curve].

On to `Cc1ccc(C)c(-c2nnc(NC(=O)c3ccc4c(c3)OCCO4)o2)c1`, for which the AC50 by setting is: (measured here: IkB-luc green channel) 5.01 µM [rising, full curve]; (measured here: control luc red channel) 6.31 µM [rising, single point].

Take `CCOC(=O)C1CCN(C(=O)CSCc2nc(-c3ccc(OCC)cc3)oc2C)CC1`: under setting [1], the half-maximal activity concentration (AC50) is 39.8 µM [falling, single point].

In the case of `O=C(CN1CCN(c2ccccc2)CC1)Nc1nnc(-c2ccccc2)s1`, under setting [1], the AC50 is 31.6 µM [falling, partial curve].

Consider `Cc1ccc(NC(=O)CN2C(=O)CCc3cc(S(=O)(=O)N4CCCCC4)ccc32)cc1C`, for which the AC50 under setting [1] is 39.8 µM [falling, single point].

Turning to `Cc1cc(C)cc(-n2c(C)nc3cc(C(=O)NCc4ccccc4Cl)ccc32)c1`, the AC50 under setting [1] is 31.6 µM [falling, partial curve].

Regarding `COc1cccc(C(=O)Nc2ccc(-n3nncc3-c3ccccc3)cc2)c1`, the half-maximal activity concentration (AC50) under setting [1] is 39.8 µM [falling, single point].

Turning to `O=S(=O)(Nc1cccc2cccnc12)c1ccc(S(=O)(=O)N2CCCC2)cc1`, the half-maximal activity concentration (AC50) under setting [1] was 7.94 µM [rising, partial curve] [measured here: IkB-luc green channel].

Consider `Cn1c(C(=O)N2CCCC(C(=O)NCc3ccc4c(c3)OCO4)C2)cc2sccc21` (stereo not given), for which the AC50 under setting [1] was 25.1 µM [falling, partial curve].

`Cc1ccc2nc(NC(=O)CN(C)S(=O)(=O)c3ccc(Br)s3)sc2c1`: the concentration at half-maximal activity (AC50) under setting [1] was 10 µM [falling, partial curve].

`Cc1ccc2[nH]c(C(=O)Nc3ccccc3)cc2c1`: the half-maximal activity concentration (AC50) under setting [1] was 5.01 µM [falling, partial curve].

For the compound `CC(CN1CCOCC1)OC(=O)c1ccc(Br)cc1` (stereo not given), under setting [1], the AC50 was 6.31 µM [falling, single point].

On to `COc1cc2cc(C(c3nnnn3C(C)(C)C)N3CCc4ccccc4C3)c(=O)[nH]c2cc1OC` (stereo not given), for which the half-maximal activity concentration (AC50) under setting [1] was 39.8 µM [rising, single point] [measured here: IkB-luc green channel].

For the compound `COc1ccc(-c2[nH]c(-c3ccccc3)nc2SCC(=O)Nc2ccc3c(c2)OCCO3)cc1`, under setting [1], the AC50 was 15.8 µM [falling, partial curve].

Regarding `CC(C)c1ccc2c(c1)CC[C@@H]1[C@@](C)(CN)CCC[C@@]21C`, the half-maximal activity concentration (AC50) under setting [1] is 3.98 µM [falling, single point].

For `CCc1ccc(-c2nc(CN3CCCC(C(=O)NCc4ccc(C)cc4)C3)c(C)o2)cc1` (stereo not given), under setting [1], the half-maximal activity concentration (AC50) was 15.8 µM [falling, partial curve].
